Test results reported in patent US10738094B2, “Peptides and combination of peptides for use in immunotherapy against ovarian cancer and other cancers” (immatics biotechnologies GmbH, priority 2015, dated 2020).

Tested on: NSCLC tumor samples
Design: species or system human
Conditions: median number of copies per cell in NSCLC tumor samples

Substance	Copy Number Category
408 (VLDDSIYLV; listed as Homo sapiens) [compound 408]	++ (>=100 = ++)
587 (VMNDRLYAI; listed as Homo sapiens) [compound 587]	++ (>=100 = ++)
